The record followed here is article PMC7498369.

Amino acid sequences for entries named in this document (tags omitted).
UniProt P46527: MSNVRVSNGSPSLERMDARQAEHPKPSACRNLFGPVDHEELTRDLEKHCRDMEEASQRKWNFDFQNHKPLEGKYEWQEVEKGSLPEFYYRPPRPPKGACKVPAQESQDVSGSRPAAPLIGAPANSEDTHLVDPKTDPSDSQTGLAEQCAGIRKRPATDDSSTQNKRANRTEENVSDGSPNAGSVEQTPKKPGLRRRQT

Results are given in words; binding and its absence hold for the method and conditions named. In cells and extracts the contact can be indirect. Some results given as binding are weak or reduced against the parent protein; the word gives no strength.

For assay [1], the target named is T1, RNF123 (human (endogenous in HCCLM3 and Huh7)) (UniProt Q5XPI4).
T1 sequence: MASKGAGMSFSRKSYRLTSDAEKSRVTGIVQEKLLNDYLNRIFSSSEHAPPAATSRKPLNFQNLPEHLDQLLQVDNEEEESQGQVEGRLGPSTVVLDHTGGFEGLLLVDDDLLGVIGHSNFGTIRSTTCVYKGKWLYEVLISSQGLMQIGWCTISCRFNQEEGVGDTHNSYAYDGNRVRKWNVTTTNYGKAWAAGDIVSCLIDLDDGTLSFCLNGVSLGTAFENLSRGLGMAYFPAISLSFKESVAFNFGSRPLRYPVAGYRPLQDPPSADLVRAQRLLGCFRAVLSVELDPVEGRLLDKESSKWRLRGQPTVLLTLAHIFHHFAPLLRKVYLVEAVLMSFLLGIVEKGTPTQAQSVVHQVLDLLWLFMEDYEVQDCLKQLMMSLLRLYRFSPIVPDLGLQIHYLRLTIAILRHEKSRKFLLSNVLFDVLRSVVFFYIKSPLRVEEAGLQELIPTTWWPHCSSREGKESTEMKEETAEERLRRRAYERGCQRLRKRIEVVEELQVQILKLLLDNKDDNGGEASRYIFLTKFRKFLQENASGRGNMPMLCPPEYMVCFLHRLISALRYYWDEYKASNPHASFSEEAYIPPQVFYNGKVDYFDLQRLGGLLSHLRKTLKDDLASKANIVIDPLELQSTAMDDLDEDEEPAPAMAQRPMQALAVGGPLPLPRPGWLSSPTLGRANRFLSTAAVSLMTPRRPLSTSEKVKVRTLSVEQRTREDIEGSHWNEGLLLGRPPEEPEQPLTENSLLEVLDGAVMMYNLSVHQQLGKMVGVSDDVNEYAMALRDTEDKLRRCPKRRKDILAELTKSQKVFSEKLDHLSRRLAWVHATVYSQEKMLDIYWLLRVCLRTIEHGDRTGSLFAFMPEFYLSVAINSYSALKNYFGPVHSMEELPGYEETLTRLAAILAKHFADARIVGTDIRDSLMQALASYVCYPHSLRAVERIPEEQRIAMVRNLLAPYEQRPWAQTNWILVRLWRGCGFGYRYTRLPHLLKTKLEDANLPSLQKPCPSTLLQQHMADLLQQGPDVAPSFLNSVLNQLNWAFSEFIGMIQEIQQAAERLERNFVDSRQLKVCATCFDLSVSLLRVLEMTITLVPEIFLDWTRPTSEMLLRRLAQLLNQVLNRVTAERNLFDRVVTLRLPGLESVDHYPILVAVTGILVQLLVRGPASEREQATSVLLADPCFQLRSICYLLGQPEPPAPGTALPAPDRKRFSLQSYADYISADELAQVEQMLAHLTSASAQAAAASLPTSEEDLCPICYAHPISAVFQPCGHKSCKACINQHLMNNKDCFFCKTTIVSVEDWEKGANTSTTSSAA
The assay is described as follows: co-IP; cell lysates (IP lysis buffer) immunoprecipitated with anti-RNF123 antibody (sc-101122), Dynabeads protein G IP kit, western blot for MARC2, p27 and RNF123; HCCLM3 overexpressing MARC2, Huh7, shMARC2-Huh7. Background: A western blot detects proteins with antibodies after separation by electrophoresis.

Assay [2] addresses p27 (human (endogenous in HCCLM3 and Huh7)) (UniProt P46527). The assay is described as follows: co-IP; indicated cell lysates immunoprecipitated with anti-p27 antibody, Dynabeads protein G IP kit, western blot.

As to p27 (from UniProt P46527 1-198), the binding entry in assay [1] is “binds”.

B1: mitochondrial amidoxime reducing component 2 (MARC2), exogenous, overexpressed in HCCLM3 cells (enzyme, UniProt Q969Z3 36-335)
chain: GTVAWRRAWPRRRRRLQQVGTVAKLWIYPVKSCKGVPVSEAECTAMGLRSGNLRDRFWLVIKEDGHMVTARQEPRLVLISIIYENNCLIFRAPDMDQLVLPSKQPSSNKLHNCRIFGLDIKGRDCGNEAAKWFTNFLKTEAYRLVQFETNMKGRTSRKLLPTLDQNFQVAYPDYCPLLIMTDASLVDLNTRMEKKMKMENFRPNIVVTGCDAFEEDTWDELLIGSVEVKKVMACPRCILTTVDPDTGVIDRKQPLDTLKSYRLCDPSERELYKLSPLFGIYYSVEKIGSLRVGDPVYRMV
In the case of B1, the binding result in assay [1] is listed as “binds”.

B2: mitochondrial amidoxime reducing component 2 (MARC2) in the 'indicated cell lysates' of Fig. 6c (enzyme, UniProt Q969Z3 36-335)
chain: GTVAWRRAWPRRRRRLQQVGTVAKLWIYPVKSCKGVPVSEAECTAMGLRSGNLRDRFWLVIKEDGHMVTARQEPRLVLISIIYENNCLIFRAPDMDQLVLPSKQPSSNKLHNCRIFGLDIKGRDCGNEAAKWFTNFLKTEAYRLVQFETNMKGRTSRKLLPTLDQNFQVAYPDYCPLLIMTDASLVDLNTRMEKKMKMENFRPNIVVTGCDAFEEDTWDELLIGSVEVKKVMACPRCILTTVDPDTGVIDRKQPLDTLKSYRLCDPSERELYKLSPLFGIYYSVEKIGSLRVGDPVYRMV
Take B2: the binding result in assay [2] is “no binding”.

B3: mitochondrial amidoxime reducing component 2 (MARC2), endogenous in Huh7 cells (enzyme, UniProt Q969Z3 36-335)
chain: GTVAWRRAWPRRRRRLQQVGTVAKLWIYPVKSCKGVPVSEAECTAMGLRSGNLRDRFWLVIKEDGHMVTARQEPRLVLISIIYENNCLIFRAPDMDQLVLPSKQPSSNKLHNCRIFGLDIKGRDCGNEAAKWFTNFLKTEAYRLVQFETNMKGRTSRKLLPTLDQNFQVAYPDYCPLLIMTDASLVDLNTRMEKKMKMENFRPNIVVTGCDAFEEDTWDELLIGSVEVKKVMACPRCILTTVDPDTGVIDRKQPLDTLKSYRLCDPSERELYKLSPLFGIYYSVEKIGSLRVGDPVYRMV
On to B3, for which the binding result in assay [1] was “binds”.
